From the supplement of paper PMC10849652
Some of the results follow.

Protein sequences, listed by entry. Tags and fused reporters are not part of them. Lines headed by an entry give the natural chain unless they say otherwise; changes in a name come on top.
UniProt Q9BZZ5: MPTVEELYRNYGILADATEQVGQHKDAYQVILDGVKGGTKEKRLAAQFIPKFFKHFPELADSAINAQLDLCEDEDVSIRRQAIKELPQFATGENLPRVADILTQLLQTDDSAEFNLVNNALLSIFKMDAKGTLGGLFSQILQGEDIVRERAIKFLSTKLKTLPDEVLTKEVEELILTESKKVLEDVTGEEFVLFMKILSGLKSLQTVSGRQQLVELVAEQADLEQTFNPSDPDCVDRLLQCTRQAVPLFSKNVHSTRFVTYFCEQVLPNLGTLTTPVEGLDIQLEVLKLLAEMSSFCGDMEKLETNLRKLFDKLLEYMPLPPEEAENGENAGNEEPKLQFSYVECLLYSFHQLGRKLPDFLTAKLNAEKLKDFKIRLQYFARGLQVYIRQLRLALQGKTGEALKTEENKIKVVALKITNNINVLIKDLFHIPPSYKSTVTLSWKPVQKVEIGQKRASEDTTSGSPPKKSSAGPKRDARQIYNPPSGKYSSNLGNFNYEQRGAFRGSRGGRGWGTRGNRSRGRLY
UniProt P29374: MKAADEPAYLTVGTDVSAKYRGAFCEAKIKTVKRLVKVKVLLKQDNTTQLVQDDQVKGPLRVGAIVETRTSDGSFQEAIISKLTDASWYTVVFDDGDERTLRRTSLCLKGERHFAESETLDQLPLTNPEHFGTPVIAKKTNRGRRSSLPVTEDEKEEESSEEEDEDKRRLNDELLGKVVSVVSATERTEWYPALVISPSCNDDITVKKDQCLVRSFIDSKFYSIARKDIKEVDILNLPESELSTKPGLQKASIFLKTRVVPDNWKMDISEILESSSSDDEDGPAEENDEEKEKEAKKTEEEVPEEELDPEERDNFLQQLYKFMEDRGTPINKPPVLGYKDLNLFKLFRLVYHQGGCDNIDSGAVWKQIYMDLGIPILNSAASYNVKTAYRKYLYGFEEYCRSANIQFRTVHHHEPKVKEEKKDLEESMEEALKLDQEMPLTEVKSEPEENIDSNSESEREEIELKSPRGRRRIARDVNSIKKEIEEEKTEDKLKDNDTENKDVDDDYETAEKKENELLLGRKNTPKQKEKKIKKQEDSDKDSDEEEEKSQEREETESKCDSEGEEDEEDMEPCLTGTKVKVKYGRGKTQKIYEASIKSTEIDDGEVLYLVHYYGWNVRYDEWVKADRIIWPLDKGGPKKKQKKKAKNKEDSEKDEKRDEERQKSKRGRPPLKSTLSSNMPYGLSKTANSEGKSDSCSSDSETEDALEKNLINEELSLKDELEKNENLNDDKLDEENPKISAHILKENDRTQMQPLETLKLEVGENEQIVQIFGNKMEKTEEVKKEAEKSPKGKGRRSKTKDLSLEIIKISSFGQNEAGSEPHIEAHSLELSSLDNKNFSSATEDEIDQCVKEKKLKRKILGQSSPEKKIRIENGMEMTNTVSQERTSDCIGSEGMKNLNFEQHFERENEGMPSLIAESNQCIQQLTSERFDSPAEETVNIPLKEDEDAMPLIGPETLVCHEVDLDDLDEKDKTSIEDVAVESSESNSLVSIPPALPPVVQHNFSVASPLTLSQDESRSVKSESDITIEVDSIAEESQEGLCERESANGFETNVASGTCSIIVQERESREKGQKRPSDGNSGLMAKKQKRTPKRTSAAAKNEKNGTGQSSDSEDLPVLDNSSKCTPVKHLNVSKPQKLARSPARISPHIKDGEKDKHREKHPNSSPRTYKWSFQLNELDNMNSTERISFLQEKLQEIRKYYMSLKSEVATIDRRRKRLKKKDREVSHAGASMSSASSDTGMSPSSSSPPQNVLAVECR
UniProt Q8IWW6: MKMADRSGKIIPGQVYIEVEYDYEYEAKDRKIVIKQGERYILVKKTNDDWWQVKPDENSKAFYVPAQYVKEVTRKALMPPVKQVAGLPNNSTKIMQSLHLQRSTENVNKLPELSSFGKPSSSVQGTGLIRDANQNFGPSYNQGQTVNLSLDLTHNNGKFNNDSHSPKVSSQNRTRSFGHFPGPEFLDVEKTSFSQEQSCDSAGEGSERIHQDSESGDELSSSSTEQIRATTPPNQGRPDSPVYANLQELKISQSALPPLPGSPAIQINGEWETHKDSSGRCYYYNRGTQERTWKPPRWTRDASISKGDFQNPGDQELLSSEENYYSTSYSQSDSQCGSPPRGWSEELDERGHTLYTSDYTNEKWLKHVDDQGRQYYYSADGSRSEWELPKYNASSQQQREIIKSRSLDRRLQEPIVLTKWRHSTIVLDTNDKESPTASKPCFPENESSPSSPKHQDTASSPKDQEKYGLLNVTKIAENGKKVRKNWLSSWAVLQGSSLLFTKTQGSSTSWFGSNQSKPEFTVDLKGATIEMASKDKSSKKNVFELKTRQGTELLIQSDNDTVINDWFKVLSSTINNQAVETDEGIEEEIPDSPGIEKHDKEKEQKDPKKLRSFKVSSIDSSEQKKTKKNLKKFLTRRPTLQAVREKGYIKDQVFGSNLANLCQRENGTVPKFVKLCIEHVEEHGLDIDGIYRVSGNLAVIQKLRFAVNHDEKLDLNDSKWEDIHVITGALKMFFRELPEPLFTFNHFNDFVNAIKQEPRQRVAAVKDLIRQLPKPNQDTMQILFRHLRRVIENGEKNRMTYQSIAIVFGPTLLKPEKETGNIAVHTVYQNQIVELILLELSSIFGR
UniProt O96018: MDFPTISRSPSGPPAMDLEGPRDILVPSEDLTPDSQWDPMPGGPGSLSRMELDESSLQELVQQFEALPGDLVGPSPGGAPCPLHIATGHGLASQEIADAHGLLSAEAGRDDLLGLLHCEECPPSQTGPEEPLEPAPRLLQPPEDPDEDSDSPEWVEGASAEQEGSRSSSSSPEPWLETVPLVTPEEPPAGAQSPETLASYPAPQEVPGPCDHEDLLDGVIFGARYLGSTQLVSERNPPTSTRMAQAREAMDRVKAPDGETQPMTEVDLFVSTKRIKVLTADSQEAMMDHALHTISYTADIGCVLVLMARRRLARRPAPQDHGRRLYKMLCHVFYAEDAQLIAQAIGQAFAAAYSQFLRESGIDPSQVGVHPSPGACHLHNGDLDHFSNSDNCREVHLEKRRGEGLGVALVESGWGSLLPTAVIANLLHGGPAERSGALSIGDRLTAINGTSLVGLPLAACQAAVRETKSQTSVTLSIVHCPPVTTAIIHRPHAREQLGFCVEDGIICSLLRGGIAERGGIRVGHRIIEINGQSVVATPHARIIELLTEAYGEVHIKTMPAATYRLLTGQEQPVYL
UniProt Q6ZUM4: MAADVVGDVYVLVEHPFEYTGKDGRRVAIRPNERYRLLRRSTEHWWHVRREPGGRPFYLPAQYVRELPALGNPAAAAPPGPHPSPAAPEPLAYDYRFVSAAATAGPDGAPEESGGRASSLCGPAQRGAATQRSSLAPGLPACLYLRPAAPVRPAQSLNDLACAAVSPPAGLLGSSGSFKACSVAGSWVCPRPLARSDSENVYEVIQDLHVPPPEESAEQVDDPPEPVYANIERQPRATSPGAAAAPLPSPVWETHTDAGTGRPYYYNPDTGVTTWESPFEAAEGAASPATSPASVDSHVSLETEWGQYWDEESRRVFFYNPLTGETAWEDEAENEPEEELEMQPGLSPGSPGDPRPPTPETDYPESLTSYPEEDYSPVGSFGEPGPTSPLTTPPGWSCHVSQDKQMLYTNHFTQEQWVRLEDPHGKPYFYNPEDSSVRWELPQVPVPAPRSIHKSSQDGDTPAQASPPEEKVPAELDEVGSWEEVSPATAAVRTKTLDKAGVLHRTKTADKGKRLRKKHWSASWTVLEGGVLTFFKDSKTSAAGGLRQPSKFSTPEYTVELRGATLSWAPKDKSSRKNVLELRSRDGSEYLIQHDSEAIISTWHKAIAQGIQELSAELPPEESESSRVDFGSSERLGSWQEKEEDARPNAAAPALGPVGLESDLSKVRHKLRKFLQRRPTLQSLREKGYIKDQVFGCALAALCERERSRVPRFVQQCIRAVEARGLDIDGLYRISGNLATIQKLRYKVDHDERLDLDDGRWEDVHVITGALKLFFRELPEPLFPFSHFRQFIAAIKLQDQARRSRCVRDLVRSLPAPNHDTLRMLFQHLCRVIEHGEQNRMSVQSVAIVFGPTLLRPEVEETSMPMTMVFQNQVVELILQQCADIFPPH
UniProt Q9H0F7: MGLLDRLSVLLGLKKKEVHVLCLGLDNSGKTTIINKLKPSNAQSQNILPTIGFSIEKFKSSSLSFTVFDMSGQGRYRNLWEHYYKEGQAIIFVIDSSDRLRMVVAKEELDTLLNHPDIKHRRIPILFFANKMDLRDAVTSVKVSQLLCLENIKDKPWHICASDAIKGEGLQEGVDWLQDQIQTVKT
UniProt P35414: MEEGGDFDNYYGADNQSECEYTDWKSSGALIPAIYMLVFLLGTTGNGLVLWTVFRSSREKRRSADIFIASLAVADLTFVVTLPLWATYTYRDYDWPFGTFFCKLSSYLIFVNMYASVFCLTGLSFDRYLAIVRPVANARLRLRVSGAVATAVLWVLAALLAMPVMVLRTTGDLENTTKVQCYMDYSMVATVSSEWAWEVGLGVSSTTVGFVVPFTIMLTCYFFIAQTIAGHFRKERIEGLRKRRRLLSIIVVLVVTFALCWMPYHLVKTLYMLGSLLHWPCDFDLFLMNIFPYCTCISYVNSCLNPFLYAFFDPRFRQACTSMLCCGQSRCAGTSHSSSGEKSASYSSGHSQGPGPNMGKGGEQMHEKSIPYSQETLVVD
UniProt O43150: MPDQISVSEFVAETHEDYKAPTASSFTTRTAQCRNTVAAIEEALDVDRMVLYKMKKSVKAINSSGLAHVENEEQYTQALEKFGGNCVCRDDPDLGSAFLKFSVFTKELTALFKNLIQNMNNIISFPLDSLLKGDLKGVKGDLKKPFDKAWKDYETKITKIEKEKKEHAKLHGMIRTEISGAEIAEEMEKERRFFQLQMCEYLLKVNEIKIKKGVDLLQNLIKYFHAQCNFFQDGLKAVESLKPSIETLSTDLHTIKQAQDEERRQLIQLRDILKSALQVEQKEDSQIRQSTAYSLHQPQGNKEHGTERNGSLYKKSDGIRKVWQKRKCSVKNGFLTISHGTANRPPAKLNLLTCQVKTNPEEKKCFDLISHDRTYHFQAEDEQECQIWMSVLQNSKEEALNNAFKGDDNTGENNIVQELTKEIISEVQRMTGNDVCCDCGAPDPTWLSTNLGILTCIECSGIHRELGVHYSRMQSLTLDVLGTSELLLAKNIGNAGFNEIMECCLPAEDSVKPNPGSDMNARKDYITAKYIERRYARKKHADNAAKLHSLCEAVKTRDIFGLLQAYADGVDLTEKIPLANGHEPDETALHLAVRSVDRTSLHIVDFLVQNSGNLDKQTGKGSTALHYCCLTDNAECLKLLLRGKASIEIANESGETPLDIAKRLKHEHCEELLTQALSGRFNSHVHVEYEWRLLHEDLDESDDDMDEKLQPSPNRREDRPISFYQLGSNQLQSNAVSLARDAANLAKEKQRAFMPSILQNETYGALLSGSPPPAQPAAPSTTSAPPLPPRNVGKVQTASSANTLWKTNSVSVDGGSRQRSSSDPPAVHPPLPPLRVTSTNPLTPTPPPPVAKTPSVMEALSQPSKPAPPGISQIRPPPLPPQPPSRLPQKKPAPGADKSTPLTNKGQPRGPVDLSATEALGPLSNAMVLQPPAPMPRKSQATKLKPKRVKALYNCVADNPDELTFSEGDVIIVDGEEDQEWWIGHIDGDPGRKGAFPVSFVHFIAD
UniProt P02749: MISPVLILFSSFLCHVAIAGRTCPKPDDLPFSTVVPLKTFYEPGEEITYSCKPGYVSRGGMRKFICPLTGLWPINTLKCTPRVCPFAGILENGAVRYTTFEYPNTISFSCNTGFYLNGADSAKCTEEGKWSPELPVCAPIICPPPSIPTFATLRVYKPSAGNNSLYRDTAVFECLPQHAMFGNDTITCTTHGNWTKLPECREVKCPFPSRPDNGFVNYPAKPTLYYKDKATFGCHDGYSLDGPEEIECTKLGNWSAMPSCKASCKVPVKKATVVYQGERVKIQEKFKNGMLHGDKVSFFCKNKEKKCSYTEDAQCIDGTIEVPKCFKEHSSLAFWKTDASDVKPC
UniProt Q7Z2E3: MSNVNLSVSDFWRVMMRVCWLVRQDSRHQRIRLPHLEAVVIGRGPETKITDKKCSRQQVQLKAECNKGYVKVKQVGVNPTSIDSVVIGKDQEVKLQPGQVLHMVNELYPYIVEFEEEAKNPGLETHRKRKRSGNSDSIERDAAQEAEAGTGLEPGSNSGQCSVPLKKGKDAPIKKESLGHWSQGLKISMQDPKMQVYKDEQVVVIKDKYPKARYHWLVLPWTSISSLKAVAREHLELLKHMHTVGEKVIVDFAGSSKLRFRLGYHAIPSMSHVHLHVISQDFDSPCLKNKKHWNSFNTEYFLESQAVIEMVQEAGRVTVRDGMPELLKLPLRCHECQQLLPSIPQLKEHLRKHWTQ
UniProt P84077: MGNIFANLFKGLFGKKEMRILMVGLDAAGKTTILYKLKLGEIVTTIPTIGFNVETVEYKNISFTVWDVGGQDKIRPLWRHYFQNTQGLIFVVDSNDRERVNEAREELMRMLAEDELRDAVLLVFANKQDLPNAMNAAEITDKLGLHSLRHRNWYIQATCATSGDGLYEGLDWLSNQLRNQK

Assays:
Experiment in all cases: log2 fold change, soluble protein after heating vs DMSO (PISA); higher = thermal stabilisation; K562 lysate, 10 uM; active = over 0.2 and 3.5 SD of the protein, either way, in both replicates (recomputed)
vemurafenib = compound: CCCS(=O)(=O)Nc1ccc(F)c(C(=O)c2c[nH]c3ncc(-c4ccc(Cl)cc4)cc23)c1F [vemurafenib]
Outline: (§1)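 Quantification was by TMTpro 16plex LC-MS/MS with equalised channel sums, applied to the supernatant after 21,000xg for 90 min. Samples were crude K562 extract at 1 mg/mL protein in PBS pH 7.4 with 1 mM MgCl2, treated with 10 μM compound for 30 min, heated for 3 min across 48°C-58°C, pooled and brought to 0.5% NP-40 at 4°C. Values are log-two fold changes in thermal stability relative to solvent controls, from duplicates.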

[1] = compound: CCCS(=O)(=O)Nc1ccc(F)c(C(=O)c2c[nH]c3ncc(Cl)cc23)c1F
Outline: as §1

barasertib = compound: CCN(CCCOc1ccc2c(Nc3cc(CC(=O)Nc4cccc(F)c4)[nH]n3)ncnc2c1)CCOP(=O)(O)O [barasertib]
Outline: as §1

[2] = compound: CC[C@@H]1C(=O)N(C)c2cnc(Nc3ccc(C(=O)NC4CCN(C)CC4)cc3OC)nc2N1C1CCCC1
Outline: as §1

volasertib = compound: CC[C@@H]1C(=O)N(C)c2cnc(Nc3ccc(C(=O)N[C@H]4CC[C@H](N5CCN(CC6CC6)CC5)CC4)cc3OC)nc2N1C(C)C [volasertib]
Outline: as §1

[3] = compound: CCn1c(C(=O)N(C2CC2)C2CC2)cc2c3c(ncn3C)c(Nc3cc(C)n(C)n3)nc21
Outline: as §1

[4] = compound: CCn1cc(-c2ccnc3[nH]c(-c4cccc(CN(C)C)c4)cc23)c(-c2ccc(NC(=O)N(C)C)cc2)n1
Outline: as §1

[5] = compound: CN1CCC(CNc2ccc3ncc(-c4cccc(OC(F)(F)F)c4)n3n2)CC1
Outline: as §1

saracatinib = compound: CN1CCN(CCOc2cc(OC3CCOCC3)c3c(Nc4c(Cl)ccc5c4OCO5)ncnc3c2)CC1 [saracatinib]
Outline: as §1

sotrastaurin = compound: CN1CCN(c2nc(C3=C(c4c[nH]c5ccccc45)C(=O)NC3=O)c3ccccc3n2)CC1 [sotrastaurin]
Outline: as §1

Measured: log2 fold change

APOBEC3C (UniProt Q9NRW3)
inactive: vemurafenib -0.027 | [1] 0.021 | barasertib -0.006 | [2] 0.075 | volasertib -0.014 | [3] -0.081 | [4] -0.038 | [5] 0.034 | saracatinib 0.018 | sotrastaurin 0.114

APOE (UniProt P02649)
inactive: vemurafenib -0.045 | [1] -0.029 | barasertib 0.011 | [2] -0.018 | volasertib 0.005 | [3] -0.05 | [4] 0.031 | [5] -0.043 | saracatinib 0.031 | sotrastaurin 0.023

API5 (UniProt Q9BZZ5)
inactive: vemurafenib -0.028 | [1] 0 | barasertib -0.004 | [2] 0.011 | volasertib 0.016 | [3] -0.002 | [4] -0.16 | [5] 0.096 | saracatinib 0.003 | sotrastaurin 0.017

ARID4A (UniProt P29374)
inactive: vemurafenib -0.077 | [3] -0.031 | [4] 0.06 | [5] 0 | saracatinib 0

ARHGAP12 isoform 3 (UniProt Q8IWW6)
inactive: vemurafenib -0.097 | [4] 0.093 | [5] 0.002 | saracatinib -0.151

ARL5B (UniProt Q96KC2)
inactive: vemurafenib 0.099 | [1] 0.039 | barasertib 0.122 | [2] -0.004 | volasertib -0.163 | [3] -0.2 | [4] -0.165 | [5] 0.026 | sotrastaurin 0.002

APBA3 (UniProt O96018)
inactive: vemurafenib 0.056 | [1] -0.038 | [2] -0.067 | volasertib -0.258 | [3] 0.016 | sotrastaurin -0.123

APOOL (UniProt Q6UXV4)
inactive: vemurafenib -0.006 | [1] 0.032 | barasertib -0.001 | [2] 0.036 | volasertib 0.031 | [3] -0.018 | [4] -0.087 | [5] 0.013 | saracatinib -0.007 | sotrastaurin -0.011

ARL5A (UniProt Q9Y689)
inactive: vemurafenib 0.084 | [1] 0.07 | [2] 0.008 | volasertib -0.055 | [3] -0.071 | [4] -0.083 | [5] 0.005 | saracatinib 0.081 | sotrastaurin 0.126

APC (UniProt P25054)
inactive: vemurafenib -0.185 | barasertib 0.034 | [2] 0.002 | [3] 0.065 | [4] -0.012 | [5] 0.036 | saracatinib 0.029 | sotrastaurin -0.03

ARHGAP27 (UniProt Q6ZUM4)
inactive: vemurafenib -0.078 | barasertib 0.198

ART4 (UniProt Q93070)
inactive: vemurafenib -0.058 | barasertib -0.019 | [2] 0.029 | [4] -0.025 | [5] 0.017

ARHGEF2 (UniProt V9GYF0)
inactive: vemurafenib -0.013 | [1] 0.05 | [2] 0.022 | volasertib -0.022 | [3] 0.11 | saracatinib -0.114

ARHGEF16 (UniProt Q5VV41)
inactive: [2] -0.016

ARHGAP22 isoform 2 (UniProt Q7Z5H3)
inactive: [1] -0.08 | [2] 0.116 | volasertib 0.061 | [3] -0.047 | saracatinib -0.033 | sotrastaurin -0.038

2 successive entries already listed, for reference:
ARID4A (UniProt P29374)
inactive: vemurafenib -0.077 | [3] -0.031 | [4] 0.06 | [5] 0 | saracatinib 0

ARHGAP12 isoform 3 (UniProt Q8IWW6)
inactive: vemurafenib -0.097 | [4] 0.093 | [5] 0.002 | saracatinib -0.151

Carrying on.

APOD (UniProt P05090)
inactive: [1] -0.215 | [2] -0.131 | volasertib -0.091 | [4] 0.279 | [5] -0.248 | saracatinib 0.072 | sotrastaurin -0.006

ARMC8 isoform 6 (UniProt Q8IUR7)
inactive: [1] -0.022 | volasertib -0.047 | [4] 0.042 | [5] -0.038

AP5S1 (UniProt Q9NUS5)
inactive: [1] -0.008 | [2] -0.022 | volasertib 0.039 | [3] 0.046 | saracatinib 0.084 | sotrastaurin -0.033

ARL6 isoform 2 (UniProt Q9H0F7)
inactive: sotrastaurin 0.026

ARL6IP4 isoform 7 (UniProt Q66PJ3)
inactive: barasertib 0.047

ARHGAP39 isoform 2 (UniProt Q9C0H5)
inactive: [1] -0.055 | volasertib 0 | sotrastaurin -0.078

APLNR (UniProt P35414)
inactive: [4] -0.098 | [5] -0.186

API5 isoform 1 (UniProt Q9BZZ5)
inactive: [3] 0.07 | [4] -0.042 | [5] -0.116 | sotrastaurin 0.113

ARHGEF12 isoform 2 (UniProt Q9NZN5)
inactive: [2] 0.03 | sotrastaurin -0.041

ASAP2 (UniProt O43150)
inactive: [1] 0.004 | volasertib -0.077

ARL4A (UniProt P40617)
inactive: [2] -0.005

Retrieved one by one from the list above, two records:
ARL4A (UniProt P40617)
inactive: [2] -0.005

APLNR (UniProt P35414)
inactive: [4] -0.098 | [5] -0.186

Following part:

ART3 (UniProt Q13508)
inactive: [3] 0.047

APPBP2 (UniProt Q92624)
inactive: barasertib -0.314 | [3] -0.064 | [4] 0.183 | [5] -0.046 | sotrastaurin 0.027

ARHGEF40 (UniProt Q8TER5)
inactive: [1] -0.107 | volasertib -0.02 | [3] 0.114 | saracatinib 0.077

APOH (UniProt P02749)
inactive: [1] -0.002 | barasertib -0.16 | volasertib -0.107 | sotrastaurin 0.268

APH1A (UniProt Q96BI3)
inactive: [1] 0.06 | barasertib -0.023 | [2] -0.029 | volasertib 0.061 | [4] 0.071 | [5] -0.023 | sotrastaurin -0.015

ARAP3 (UniProt Q8WWN8)
inactive: [2] -0.281 | [4] 0.146 | [5] -0.038 | saracatinib 0.047

AQP1 (UniProt P29972)
inactive: [4] -0.175 | [5] 0.128

ARMC8 (UniProt C9JAA7)
inactive: [2] -0.002

ARMC5 (UniProt Q96C12)
inactive: [4] 0.156 | [5] 0

ARHGAP28 (UniProt Q9P2N2)
inactive: [1] -0.041 | barasertib -0.03 | volasertib -0.056 | saracatinib -0.009

ARHGAP15 (UniProt Q53QZ3)
inactive: [1] -0.157 | [2] -0.32 | volasertib 0.243 | sotrastaurin -0.308

ARL6IP4 isoform 2 (UniProt Q66PJ3)
inactive: [1] -0.113 | volasertib -0.005 | [4] -0.015 | [5] 0.04

APBA1 (UniProt Q02410)
inactive: [1] -0.019 | barasertib 0.039 | [2] 0.066 | volasertib 0.015 | [3] -0.016 | [4] 0.237 | [5] -0.03 | sotrastaurin 0.064

APTX isoform 4 (UniProt Q7Z2E3)
inactive: [4] -0.25 | [5] 0.104

APOL1 isoform 2 (UniProt O14791)
inactive: [2] 0.166 | [4] 0.465 | [5] -0.083 | saracatinib 0.231

AP5B1 (UniProt Q2VPB7)
inactive: [1] 0.062 | barasertib 0.035 | [2] 0.066 | volasertib 0.011 | [3] 0.001 | [4] 0.002 | [5] 0.045 | saracatinib -0.014 | sotrastaurin -0.062

ARF1 (UniProt P84077)
inactive: [1] 0.139 | volasertib -0.023 | [3] 0.017 | [4] 0.047 | [5] -0.225 | sotrastaurin 0.063

APP (UniProt P05067)
inactive: barasertib -0.104 | [2] 0.054 | [4] 0.024 | [5] -0.03 | saracatinib 0 | sotrastaurin 0.016

ARRDC1-AS1 (UniProt Q9H2J1)
inactive: [4] 0.016 | [5] -0.024

ARMC10 isoform 2 (UniProt Q8N2F6)
inactive: [2] 0.113 | [3] -0.126 | saracatinib 0.017

ARMC7 (UniProt Q9H6L4)
inactive: vemurafenib -0.057 | saracatinib -0.07 | sotrastaurin -0.002
